Assay [1] concerns the target T1, 3xFlag-WDR18 (human (endogenous in HEK293FT)) (UniProt Q9BV38).
T1 sequence: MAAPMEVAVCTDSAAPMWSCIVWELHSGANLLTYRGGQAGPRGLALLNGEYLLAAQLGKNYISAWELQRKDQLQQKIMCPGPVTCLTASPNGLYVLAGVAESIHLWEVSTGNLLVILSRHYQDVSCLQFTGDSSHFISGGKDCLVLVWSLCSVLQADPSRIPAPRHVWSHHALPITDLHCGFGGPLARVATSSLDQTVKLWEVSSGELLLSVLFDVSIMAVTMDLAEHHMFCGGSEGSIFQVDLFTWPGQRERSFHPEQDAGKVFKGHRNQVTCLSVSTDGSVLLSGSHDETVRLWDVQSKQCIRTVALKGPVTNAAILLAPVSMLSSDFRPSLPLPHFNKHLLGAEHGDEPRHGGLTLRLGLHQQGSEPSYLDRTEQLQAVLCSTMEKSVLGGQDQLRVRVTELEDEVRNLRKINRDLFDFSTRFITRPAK
Briefly: co-IP.

Chains of the proteins cited; added tags and fusions are not shown. Lines headed by an entry give the natural chain unless they say otherwise; changes in a name come on top. Residues count along the entry.
UniProt P83916: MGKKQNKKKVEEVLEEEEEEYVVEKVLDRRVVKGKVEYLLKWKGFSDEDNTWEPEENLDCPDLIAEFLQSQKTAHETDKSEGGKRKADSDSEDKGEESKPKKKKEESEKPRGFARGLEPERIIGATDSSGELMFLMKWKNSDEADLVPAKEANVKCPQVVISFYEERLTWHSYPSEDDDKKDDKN
UniProt P45973: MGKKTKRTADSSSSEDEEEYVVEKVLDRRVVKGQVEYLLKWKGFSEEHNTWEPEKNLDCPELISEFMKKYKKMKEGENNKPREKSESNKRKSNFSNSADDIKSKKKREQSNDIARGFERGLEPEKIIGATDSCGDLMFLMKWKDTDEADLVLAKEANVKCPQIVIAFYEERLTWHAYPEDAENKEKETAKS
UniProt Q13185: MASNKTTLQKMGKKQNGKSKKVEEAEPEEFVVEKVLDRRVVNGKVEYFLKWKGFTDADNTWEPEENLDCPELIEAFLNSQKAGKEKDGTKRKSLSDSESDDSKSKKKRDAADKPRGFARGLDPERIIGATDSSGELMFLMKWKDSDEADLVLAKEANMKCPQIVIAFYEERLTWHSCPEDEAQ
UniProt O95931: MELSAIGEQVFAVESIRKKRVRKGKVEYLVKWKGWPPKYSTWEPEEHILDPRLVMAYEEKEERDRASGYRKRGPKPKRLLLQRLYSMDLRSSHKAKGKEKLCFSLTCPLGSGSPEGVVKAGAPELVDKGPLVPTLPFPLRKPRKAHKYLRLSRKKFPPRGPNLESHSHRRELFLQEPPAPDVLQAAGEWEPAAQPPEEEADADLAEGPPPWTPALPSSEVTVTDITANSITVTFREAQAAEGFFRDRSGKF
UniProt Q99496: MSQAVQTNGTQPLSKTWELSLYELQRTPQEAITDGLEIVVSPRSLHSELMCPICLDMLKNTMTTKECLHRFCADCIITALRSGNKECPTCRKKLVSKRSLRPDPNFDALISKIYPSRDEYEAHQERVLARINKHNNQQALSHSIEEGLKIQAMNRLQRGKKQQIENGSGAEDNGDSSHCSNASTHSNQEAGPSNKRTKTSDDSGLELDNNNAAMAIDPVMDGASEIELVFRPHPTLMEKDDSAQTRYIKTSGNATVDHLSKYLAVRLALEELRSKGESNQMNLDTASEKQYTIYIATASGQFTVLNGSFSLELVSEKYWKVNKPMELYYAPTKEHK
GST-RING1B amino acids 1-100: residues 1-100 of Q99496
GST-RING1B amino acids 101-200: residues 101-200 of Q99496
UniProt O75530, residues 142-200: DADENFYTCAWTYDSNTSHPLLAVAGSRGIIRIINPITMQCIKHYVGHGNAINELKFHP
UniProt Q9H4L4: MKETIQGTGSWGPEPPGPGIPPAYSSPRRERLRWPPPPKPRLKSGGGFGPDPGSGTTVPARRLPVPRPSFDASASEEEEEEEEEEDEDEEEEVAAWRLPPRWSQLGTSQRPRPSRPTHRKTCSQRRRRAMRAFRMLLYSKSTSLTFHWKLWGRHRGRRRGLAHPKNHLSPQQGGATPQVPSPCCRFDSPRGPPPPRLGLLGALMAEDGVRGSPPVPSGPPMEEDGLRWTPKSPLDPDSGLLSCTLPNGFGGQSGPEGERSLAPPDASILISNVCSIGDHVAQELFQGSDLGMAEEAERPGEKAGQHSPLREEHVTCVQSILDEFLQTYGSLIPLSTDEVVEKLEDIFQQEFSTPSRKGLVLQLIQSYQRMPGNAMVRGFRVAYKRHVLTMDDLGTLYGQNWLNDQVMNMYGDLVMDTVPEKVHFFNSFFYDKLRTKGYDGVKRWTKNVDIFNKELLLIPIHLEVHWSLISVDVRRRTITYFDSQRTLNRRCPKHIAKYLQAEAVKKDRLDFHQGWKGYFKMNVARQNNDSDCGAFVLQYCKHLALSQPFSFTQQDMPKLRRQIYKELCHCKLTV
UniProt Q8IZL8: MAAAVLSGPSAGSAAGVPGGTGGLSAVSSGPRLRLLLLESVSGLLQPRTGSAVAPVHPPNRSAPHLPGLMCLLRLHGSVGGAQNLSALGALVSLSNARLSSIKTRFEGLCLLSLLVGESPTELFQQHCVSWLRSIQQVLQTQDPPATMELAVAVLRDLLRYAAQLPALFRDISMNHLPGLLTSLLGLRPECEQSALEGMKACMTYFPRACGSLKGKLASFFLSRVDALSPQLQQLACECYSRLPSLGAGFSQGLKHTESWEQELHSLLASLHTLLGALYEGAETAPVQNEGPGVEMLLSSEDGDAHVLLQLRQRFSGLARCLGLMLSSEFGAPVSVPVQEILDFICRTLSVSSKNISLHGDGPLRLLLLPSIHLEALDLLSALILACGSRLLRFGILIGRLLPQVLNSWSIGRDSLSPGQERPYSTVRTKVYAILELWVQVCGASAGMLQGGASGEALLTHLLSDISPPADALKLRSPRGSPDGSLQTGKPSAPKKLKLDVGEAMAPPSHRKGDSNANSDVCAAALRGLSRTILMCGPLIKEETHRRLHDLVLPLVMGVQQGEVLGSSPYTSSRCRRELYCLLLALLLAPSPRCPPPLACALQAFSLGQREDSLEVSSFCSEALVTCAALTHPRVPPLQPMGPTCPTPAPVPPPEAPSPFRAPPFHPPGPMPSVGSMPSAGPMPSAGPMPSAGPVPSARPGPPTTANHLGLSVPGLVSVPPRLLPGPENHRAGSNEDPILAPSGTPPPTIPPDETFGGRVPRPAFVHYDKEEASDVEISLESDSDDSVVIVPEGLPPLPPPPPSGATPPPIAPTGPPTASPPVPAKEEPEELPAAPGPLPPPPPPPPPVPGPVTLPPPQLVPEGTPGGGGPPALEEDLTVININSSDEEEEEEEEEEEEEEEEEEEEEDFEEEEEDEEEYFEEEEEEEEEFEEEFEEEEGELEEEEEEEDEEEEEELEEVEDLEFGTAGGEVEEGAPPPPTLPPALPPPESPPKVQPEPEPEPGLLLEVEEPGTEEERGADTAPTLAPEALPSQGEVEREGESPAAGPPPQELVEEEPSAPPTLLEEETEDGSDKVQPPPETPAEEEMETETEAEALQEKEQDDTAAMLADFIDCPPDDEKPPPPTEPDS

For assay [2], the target named is T2, 3xFlag-NOL9 (human (endogenous in HEK293FT)) (UniProt Q5SY16).
T2 sequence: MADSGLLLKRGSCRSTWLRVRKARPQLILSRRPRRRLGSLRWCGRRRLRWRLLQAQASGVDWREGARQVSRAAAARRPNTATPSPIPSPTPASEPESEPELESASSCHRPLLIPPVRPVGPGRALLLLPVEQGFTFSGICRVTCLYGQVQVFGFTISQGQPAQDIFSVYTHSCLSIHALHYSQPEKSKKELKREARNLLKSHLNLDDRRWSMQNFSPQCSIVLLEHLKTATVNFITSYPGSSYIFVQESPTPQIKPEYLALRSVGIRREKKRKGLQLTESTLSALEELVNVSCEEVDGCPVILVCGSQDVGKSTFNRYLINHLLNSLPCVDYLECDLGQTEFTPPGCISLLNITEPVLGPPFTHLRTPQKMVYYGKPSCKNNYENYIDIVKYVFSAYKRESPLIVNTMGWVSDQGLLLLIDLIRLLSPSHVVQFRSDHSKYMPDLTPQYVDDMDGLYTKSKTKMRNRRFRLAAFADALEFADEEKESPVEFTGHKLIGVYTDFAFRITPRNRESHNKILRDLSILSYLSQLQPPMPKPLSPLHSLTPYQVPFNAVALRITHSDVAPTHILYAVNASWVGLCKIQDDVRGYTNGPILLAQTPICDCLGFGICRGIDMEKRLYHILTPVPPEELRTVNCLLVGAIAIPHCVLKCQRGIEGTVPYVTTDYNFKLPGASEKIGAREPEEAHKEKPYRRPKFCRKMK
As to the kind of experiment: co-IP.

The target of assay [3] is T3, PCGF3 (yeast two-hybrid fusion) (human) (UniProt Q3KNV8).
T3 sequence: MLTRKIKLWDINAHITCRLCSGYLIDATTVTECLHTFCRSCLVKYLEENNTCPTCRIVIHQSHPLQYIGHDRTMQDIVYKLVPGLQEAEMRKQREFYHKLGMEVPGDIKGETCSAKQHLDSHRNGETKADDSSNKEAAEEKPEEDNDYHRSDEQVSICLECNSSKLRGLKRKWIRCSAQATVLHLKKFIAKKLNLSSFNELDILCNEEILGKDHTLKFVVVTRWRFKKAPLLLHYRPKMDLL
As to the kind of experiment: two-hybrid.

Assay [4] concerns the target T4, CBX8 (yeast two-hybrid fusion) (human) (UniProt Q9HC52).
T4 sequence: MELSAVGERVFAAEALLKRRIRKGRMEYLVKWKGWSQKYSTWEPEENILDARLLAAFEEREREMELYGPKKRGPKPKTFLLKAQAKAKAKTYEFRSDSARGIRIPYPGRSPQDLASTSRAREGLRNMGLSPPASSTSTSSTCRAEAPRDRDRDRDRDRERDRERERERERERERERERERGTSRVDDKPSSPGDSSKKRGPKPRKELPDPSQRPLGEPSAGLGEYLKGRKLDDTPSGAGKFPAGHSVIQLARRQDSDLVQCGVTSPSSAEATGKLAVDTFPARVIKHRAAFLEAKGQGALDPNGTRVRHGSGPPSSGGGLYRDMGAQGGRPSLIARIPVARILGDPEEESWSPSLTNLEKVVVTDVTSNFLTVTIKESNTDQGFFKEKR
Briefly: two-hybrid.

Assay [5] deals with CBX1 (yeast two-hybrid fusion) (human) (UniProt P83916). Briefly: two-hybrid.
For assay [6], the target named is CBX5 (yeast two-hybrid fusion) (human) (UniProt P45973). Briefly: two-hybrid.
Assay [7] has as its target CBX3 (yeast two-hybrid fusion) (human) (UniProt Q13185). As to the kind of experiment: two-hybrid.
Assay [8] concerns the target CBX7 (yeast two-hybrid fusion) (human) (UniProt O95931). Briefly: two-hybrid.
The target of assay [9] is GST-RING1B amino acids 1-100 (human) (UniProt Q99496). As to the kind of experiment: pull-down.
Assay [10] addresses GST-EED amino acids 142-200 (human) (UniProt O75530). Briefly: pull-down.
Assay [11] addresses GST-RING1B amino acids 101-200 (human) (UniProt Q99496). Briefly: pull-down.

No constants are given. Whether binding was seen depends on the method and setting. For part of these data: Binding seen in cells or lysates may run through a third protein. Some entries that bind do so weakly or less than the wild type. For part of these data: Tags and fused reporters may be left off the sequences shown.

As to RING1B (from UniProt Q99496 1-336), the binding result in assay [1] and in assay [2] was “binds” each time.

On to “SENP3 (yeast two-hybrid fusion) (from UniProt Q9H4L4 1-574)”, for which the binding entry in assay [3] is “binds”; in [4], “binds”; in [5], “no binding”; in assay [6] it was “no binding”; in [7] it was “no binding”; in [8], “binds”.

For the molecule “PELP1 (yeast two-hybrid fusion) (from UniProt Q8IZL8 1-1130)”, the binding entry is given as “binds” in assay [3], “no binding” in assay [5], “no binding” in assay [6] and “no binding” in assay [7].

B1: WDR18 (yeast two-hybrid fusion) (protein, UniProt Q9BV38 1-432)
chain: T1 sequence
For the molecule B1, the binding entry in assay [5], in assay [6] and in [7] was “no binding” in each case.

B2: TEX10 (bacterially expressed and purified) (protein, UniProt Q9NXF1 1-929)
chain: MTKKRKRQHDFQKVKLKVGKKKPKLQNATPTNFKTKTIHLPEQLKEDGTLPTNNRKLNIKDLLSQMHHYNAGVKQSALLGLKDLLSQYPFIIDAHLSNILSEVTAVFTDKDANVRLAAVQLLQFLAPKIRAEQISPFFPLVSAHLSSAMTHITEGIQEDSLKVLDILLEQYPALITGRSSILLKNFVELISHQQLSKGLINRDRSQSWILSVNPNRRLTSQQWRLKVLVRLSKFLQALADGSSRLRESEGLQEQKENPHATSNSIFINWKEHANDQQHIQVYENGGSQPNVSSQFRLRYLVGGLSGVDEGLSSTENLKGFIEIIIPLLIECWVEAVPPQLATPVGNGIEREPLQVMQQVLNIISLLWKLSKQQDETHKLESWLRKNYLIDFKHHFMSRFPYVLKEITKHKRKEPNKSIKHCTVLSNNIDHLLLNLTLSDIMVSLANASTLQKDCSWIEMIRKFVTETLEDGSRLNSKQLNRLLGVSWRLMQIQPNREDTETLIKAVYTLYQQRGLILPVRTLLLKFFSKIYQTEELRSCRFRYRSKVLSRWLAGLPLQLAHLGSRNPELSTQLIDIIHTAAARANKELLKSLQATALRIYDPQEGAVVVLPADSQQRLVQLVYFLPSLPADLLSRLSRCCIMGRLSSSLAAMLIGILHMRSSFSGWKYSAKDWLMSDVDYFSFLFSTLTGFSKEELTWLQSLRGVPHVIQTQLSPVLLYLTDLDQFLHHWDVTEAVFHSLLVIPARSQNFDILQSAISKHLVGLTVIPDSTAGCVFGVICKLLDHTCVVSETLLPFLASCCYSLLYFLLTIEKGEAEHLRKRDKLWGVCVSILALLPRVLRLMLQSLRVNRVGPEELPVVGQLLRLLLQHAPLRTHMLTNAILVQQIIKNITTLKSGSVQEQWLTDLHYCFNVYITGHPQGPSALATVY
Take B2: the binding result in [9], in assay [10] and in assay [11] was “binds” in each case.

B3: NOL9 (yeast two-hybrid fusion) (protein, UniProt Q5SY16 1-702)
chain: T2 sequence
Regarding B3, the binding entry in assay [5], in assay [6] and in assay [7] was “no binding” throughout.

The values above are taken from article doi:10.1101/2019.12.23.887547.
